# Laboratory results: PubChem BioAssay AID540303 (National Center for Advancing Translational Sciences (NCATS), 2011)
# The campaign covered roughly 330,000 compounds. About 1,000 (0.3%) were called active. Inconclusive means that the source gave no clear call. Such entries were picked first, then a sample of the others. Calls follow the shape of the dose curve; as a rule, active = well fitted inhibition curve with a large enough effect; inconclusive = small, poorly fitted or top-dose-only effect; inactive = no such curve, though single readings can be large or run the other way; tested in mouse RAW 264.7 cells. Potencies beside an inconclusive call are fits to weak or partial responses and may not hold up.
# Assay: qHTS for Inhibitors of Cell Surface uPA Generation; also: nearly all actives have a fitted effect of over 55% in size
# Conditions: cell surface uPA generation assay; series mostly up to 38.3 µM
# How it was run: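 Intracellular ATP by ATPlite luminescence serves as read-out: inhibited cell-surface uPA generation prevents LF translocation, preserving ATP. Murine RAW 264.7 macrophages were treated 24 h at 37 C with five-fold serial dilutions, up to 38.3 uM final.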
# Potency is read from the fitted curve at half-maximal effect.
row,SMILES,Potency
1,COc1cccc(C(=O)Nc2ccc(F)cc2F)c1,inactive
2,CCOC(=O)c1sc(NC(=O)Nc2cccc(Cl)c2)cc1C,"inconclusive: 22.4 µM [inhibitor, single point]"
3,CC1CCCC(C)N1C(=O)CN1C(=O)c2ccccc2S1(=O)=O (centres undefined),"inconclusive: 2.82 µM [inhibitor, single point]"
4,O=C1C2C3c4ccccc4C(c4ccccc43)C2C(=O)N1c1nc(-c2ccccc2)cs1 (centres undefined),inactive
5,COc1ccc(C)cc1N=Nc1ccc(O)c2ncccc12,active: 3.55 µM
6,CCC(=NCCc1c(C)[nH]c2ccccc12)C1=C(O)CC(c2ccccc2)CC1=O (centres undefined),"inconclusive: 12.6 µM [inhibitor, single point]"
7,O=C(N/N=C/c1cccc([N+](=O)[O-])c1O)C(O)(c1ccccc1)c1ccccc1,"inconclusive: 12.6 µM [inhibitor, partial curve]"
8,O=Nc1ccc(O)c2ncccc12,"inconclusive: 1.12 µM [inhibitor, partial curve, poor fit]"
9,Cc1ccsc1C(=O)N/N=C/c1ccc2c(c1)OCO2,"inconclusive: 0.355 µM [inhibitor, full curve, poor fit]"
10,COC(=O)/C(=N\Nc1ccccc1)Sc1nnc(-c2ccc(OC)cc2)n1C,inactive
11,C=C1CCN(CC(=O)OC)S(=O)(=O)c2ccccc21,inactive
12,N#Cc1ccccc1NC(=O)CC1c2ccccc2Oc2ccccc21,"inconclusive: 0.316 µM [inhibitor, full curve, poor fit]"
13,O=C(NCCc1ccc(Cl)cc1)C1CCCN1C(=O)Nc1ccc(F)cc1 (centres undefined),"inconclusive: 3.16 µM [inhibitor, partial curve, poor fit]"
14,CCCOc1ncnc2c1[nH]c1ccc(OC)cc12,active: 4.47 µM
15,Cc1ccnc(Nc2nc(-c3sc(C)nc3C)cs2)c1,inactive
16,COc1ccc(/C=C2\SC(=O)N(CC(=O)Nc3ccccc3O)C2=O)cc1OC,"inconclusive: 7.08 µM [inhibitor, partial curve, poor fit]"
17,CCOC(=O)c1nc(C)sc1-c1ccnn1S(=O)(=O)c1ccc(Cl)cc1Cl,"inconclusive: 2.82 µM [inhibitor, partial curve, poor fit]"
18,Cc1ccc2sc(N(CCCN(C)C)C(=O)CCS(=O)(=O)c3ccccc3)nc2c1C,"inconclusive: 10 µM [inhibitor, partial curve]"
19,O=C(COC(=O)c1ccccc1-c1nc2ccccc2s1)Nc1ccccc1C(F)(F)F,inactive
20,CN1CCN(CCCNC(=O)c2ccc3c(Cl)c4c(nc3c2)CCCC4)CC1,active: 11.2 µM
21,CCc1ccc(Nc2n[n+](-c3ccccc3)c(-c3cccc(C)c3)s2)cc1,"inconclusive: 8.91 µM [inhibitor, single point]"
22,COc1ccc(NC(=S)NC(C)Cc2cccs2)cc1 (centres undefined),inactive
23,O=C(Cc1cccc(NC(=O)C2CCCN(C(=O)CCc3ccccc3)C2)c1)Nc1cccc(C(=O)N2CCCCC2)c1 (centres undefined),"inconclusive: 31.6 µM [inhibitor, single point]"
24,Cc1c(NC(=O)CN2C(=O)C(=O)c3ccccc32)c(=O)n(-c2ccccc2)n1C,inactive
25,Cc1cccc(C(=O)OCC(=O)NC23CC4CC(CC(C4)C2)C3)c1O,inactive

# Part of the list above in another layout.
row | SMILES | Potency
19 | O=C(COC(=O)c1ccccc1-c1nc2ccccc2s1)Nc1ccccc1C(F)(F)F | inactive
20 | CN1CCN(CCCNC(=O)c2ccc3c(Cl)c4c(nc3c2)CCCC4)CC1 | active: 11.2 µM
21 | CCc1ccc(Nc2n[n+](-c3ccccc3)c(-c3cccc(C)c3)s2)cc1 | inconclusive: 8.91 µM [inhibitor, single point]

# Next part:

row,SMILES,Potency
1,CC(C)c1ccc(CN2CCC(Oc3ccc(C(=O)N4CCCC4)cc3)CC2)cc1,"inconclusive: 6.31 µM [inhibitor, partial curve, poor fit]"
2,CC(C(O)c1cc(=O)c(OCc2ccccc2)co1)[N+](=O)[O-] (centres undefined),inactive
3,CC(C)n1cnc2c(NCc3ccccc3)cc(N[C@H](C)CO)cc21,"inconclusive: 5.01 µM [inhibitor, partial curve, poor fit]"
4,COc1ccc(/C=N/NC(=O)c2ccoc2C)cc1COc1c(C)cccc1C,inactive
5,CCCN1CCC(=O)N([C@H](CSc2ccc(C)cc2)c2ccccc2)CC1,"inconclusive: 31.6 µM [inhibitor, single point]"
6,Cc1cc(Cl)ccc1OCC(=O)Nc1ccc(CN2CCOCC2)cc1,"inconclusive: 17.8 µM [inhibitor, partial curve, poor fit]"
7,Cc1[nH]n(-c2ccccc2)c(=O)c1/C=N/NC(=O)c1cccc(F)c1,"inconclusive: 3.55 µM [inhibitor, single point]"
8,O=C(Nc1ncccc1O)c1ccc(OCC2CCCO2)cc1 (centres undefined),"inconclusive: 7.08 µM [inhibitor, partial curve, poor fit]"
9,CC[C@H](C)[C@@H](CN[C@H](CCCCNC)CNC)NCC1CCCC1,inactive
10,Cc1ccc(CN2CCN(/N=C/C=C/c3ccccc3[N+](=O)[O-])CC2)cc1,inactive
11,NC(=O)C1(N2CCCCC2)CCN(C(=S)Nc2ccc(F)c(Cl)c2)CC1,"inconclusive: 2.51 µM [inhibitor, full curve, poor fit]"
12,Cc1nn(CC(=O)N2CCC(N3CCCCC3)CC2)c(=O)c2c1sc1ccccc12,"inconclusive: 10 µM [inhibitor, single point]"
13,O=C(NNC1=Nc2ccccc2SC1)c1ccc(Cl)cc1,inactive
14,Cc1ccc(Nc2cc(-c3ccccc3)nc3ncnn23)cc1,inactive
15,COc1cc(/C=C2/C(=O)NN(c3ccc(F)cc3)C2=O)cc(Cl)c1O,inactive
16,C/C(=N\NC(=O)c1cc(-c2ccco2)nc2ccccc12)c1cccnc1,"inconclusive: 6.31 µM [inhibitor, single point]"
17,O=C(NCCCN1CCOCC1)c1cc(-c2ccccc2)on1,"inconclusive: 1 µM [inhibitor, partial curve, poor fit]"
18,O=C(Nc1cccc(-c2csc(Nc3cccc(C(F)(F)F)c3)n2)c1)c1ccccc1,"inconclusive: 1 µM [inhibitor, full curve, poor fit]"
19,Cc1c(C(=O)Oc2ccc(Cl)cc2)n(C)oc1=O,inactive
20,CC(=O)c1sc(NC(=O)c2ccccc2F)nc1C,"inconclusive: 10 µM [inhibitor, partial curve]"
21,COc1ccc(/C=C/C2=Nc3ccccc3NC(C)(C)C2)cc1OC,"inconclusive: 12.6 µM [inhibitor, single point]"
22,Cc1ccc[n+](CC(=O)/C=C2\N(C)c3ccccc3C2(C)C)c1,inactive
23,Cc1cccc2c1-c1sc(C(=O)NCCCN3CCC(C)CC3)cc1CO2,"inconclusive: 12.6 µM [inhibitor, partial curve, poor fit]"
24,OCCNc1nc(Nc2ccc(Br)cc2)nc2ccccc12,inactive
25,Cc1cccc(C(=O)NC(=S)NNC(=O)COc2ccc(Cl)cc2)c1,inactive

row,SMILES,Potency
1,CC(=O)C1=C(c2cccc([N+](=O)[O-])c2)N(C(C)=O)n2c(C)nnc2S1,"inconclusive: 5.62 µM [inhibitor, partial curve, poor fit]"
2,N#CCC(=O)NNC(=S)NC(=O)C(c1ccccc1)c1ccccc1,inactive
3,COc1ccc2c3n(nc2c1)CCN=C3c1ccc(Cl)cc1,inactive
4,N#CC(C(=O)NC1CCCCC1)=C1CCCCCC1,"inconclusive: 0.316 µM [inhibitor, full curve, poor fit]"
5,CCOC(=O)c1[nH]c2c(c1C)C(=O)CC(c1ccco1)C2 (centres undefined),"inconclusive: 0.708 µM [inhibitor, full curve, poor fit]"
6,Cn1c(NC(=S)Nc2ccccc2)nc2ccccc21,inactive
7,Cc1ccc(CSc2nc3ccncc3n2CC(=O)Nc2cc(C)cc(C)c2)cc1,"inconclusive: 5.62 µM [inhibitor, partial curve, poor fit]"
8,COc1cccc(CNc2ncc(C(=O)Nc3cc(OC)c(OC)c(OC)c3)c(C)n2)c1,active: 5.62 µM
9,COc1ccc(S(=O)(=O)N2CCOC2CNC(=O)C(=O)NCCc2ccccc2)cc1C (centres undefined),"inconclusive: 11.2 µM [inhibitor, single point]"
10,COCC(=O)N1CCC(Oc2ccc(C(=O)N3C[C@H]4CC[C@H]3C4)cc2)CC1,inactive
11,NS(=O)(=O)c1ccc(CNC(=O)c2cc(-c3cccnc3)nc3ccc(Br)cc23)cc1,"inconclusive: 25.1 µM [inhibitor, partial curve, poor fit]"
12,COc1ccc(CN(C(=O)c2cnccn2)C(C(=O)Nc2ccc(F)cc2)c2ccccc2)cc1 (centres undefined),inactive
13,CCCN(CCC)CCCNC(=S)Nc1ccc2nc(N3CCCC3)cc(C)c2c1,"inconclusive: 11.2 µM [inhibitor, partial curve, poor fit]"
14,N/C(=N\OC(=O)c1ccc2c(c1)OCO2)c1ccncc1,"inconclusive: 0.355 µM [inhibitor, full curve, poor fit]"
15,CCCCNC(=O)C1(NC(=O)Nc2ccccc2)CCCCC1,"inconclusive: 20 µM [inhibitor, partial curve, poor fit]"
16,C=CCN1c2ccccc2[C@]23C[C@@H](C(=O)OC)N(C(=O)c4cccs4)C2=NC(C(=O)OC)=C(C(=O)OC)[C@H]13,active: 6.31 µM
17,COc1cccc(NC(=O)CN2C(=O)COc3ccc(S(=O)(=O)N4CCOCC4)cc32)c1,inactive
18,Cc1cc(C(=O)Cn2cc(C(F)(F)F)ccc2=O)c(C)n1-c1ccccc1,inactive
19,CSc1c(CC(=O)Nc2ccccc2)n(C)c2ccccc12,"inconclusive: 12.6 µM [inhibitor, single point]"
20,O=C(Nc1nc2ccccc2[nH]1)c1cccs1,inactive
21,CCCC(=O)Nc1nnc(SCC(=O)Nc2ccc3c(c2)OCCO3)s1,inactive
22,Cc1ccsc1-c1ccnc(-n2cccc2)n1,inactive
23,COc1cc(C)ccc1OCc1cc(C(=O)N(Cc2nccn2C)C(C)C)no1,inactive
24,O=C(Nn1cnnc1)c1cc2c(s1)CCCCC2,inactive
